Primary screen of a compound library

Sequences of proteins named here, by UniProt entry; tags and fusion partners are left off. Residues count along the entry.
UniProt I6X8D2, whole entry: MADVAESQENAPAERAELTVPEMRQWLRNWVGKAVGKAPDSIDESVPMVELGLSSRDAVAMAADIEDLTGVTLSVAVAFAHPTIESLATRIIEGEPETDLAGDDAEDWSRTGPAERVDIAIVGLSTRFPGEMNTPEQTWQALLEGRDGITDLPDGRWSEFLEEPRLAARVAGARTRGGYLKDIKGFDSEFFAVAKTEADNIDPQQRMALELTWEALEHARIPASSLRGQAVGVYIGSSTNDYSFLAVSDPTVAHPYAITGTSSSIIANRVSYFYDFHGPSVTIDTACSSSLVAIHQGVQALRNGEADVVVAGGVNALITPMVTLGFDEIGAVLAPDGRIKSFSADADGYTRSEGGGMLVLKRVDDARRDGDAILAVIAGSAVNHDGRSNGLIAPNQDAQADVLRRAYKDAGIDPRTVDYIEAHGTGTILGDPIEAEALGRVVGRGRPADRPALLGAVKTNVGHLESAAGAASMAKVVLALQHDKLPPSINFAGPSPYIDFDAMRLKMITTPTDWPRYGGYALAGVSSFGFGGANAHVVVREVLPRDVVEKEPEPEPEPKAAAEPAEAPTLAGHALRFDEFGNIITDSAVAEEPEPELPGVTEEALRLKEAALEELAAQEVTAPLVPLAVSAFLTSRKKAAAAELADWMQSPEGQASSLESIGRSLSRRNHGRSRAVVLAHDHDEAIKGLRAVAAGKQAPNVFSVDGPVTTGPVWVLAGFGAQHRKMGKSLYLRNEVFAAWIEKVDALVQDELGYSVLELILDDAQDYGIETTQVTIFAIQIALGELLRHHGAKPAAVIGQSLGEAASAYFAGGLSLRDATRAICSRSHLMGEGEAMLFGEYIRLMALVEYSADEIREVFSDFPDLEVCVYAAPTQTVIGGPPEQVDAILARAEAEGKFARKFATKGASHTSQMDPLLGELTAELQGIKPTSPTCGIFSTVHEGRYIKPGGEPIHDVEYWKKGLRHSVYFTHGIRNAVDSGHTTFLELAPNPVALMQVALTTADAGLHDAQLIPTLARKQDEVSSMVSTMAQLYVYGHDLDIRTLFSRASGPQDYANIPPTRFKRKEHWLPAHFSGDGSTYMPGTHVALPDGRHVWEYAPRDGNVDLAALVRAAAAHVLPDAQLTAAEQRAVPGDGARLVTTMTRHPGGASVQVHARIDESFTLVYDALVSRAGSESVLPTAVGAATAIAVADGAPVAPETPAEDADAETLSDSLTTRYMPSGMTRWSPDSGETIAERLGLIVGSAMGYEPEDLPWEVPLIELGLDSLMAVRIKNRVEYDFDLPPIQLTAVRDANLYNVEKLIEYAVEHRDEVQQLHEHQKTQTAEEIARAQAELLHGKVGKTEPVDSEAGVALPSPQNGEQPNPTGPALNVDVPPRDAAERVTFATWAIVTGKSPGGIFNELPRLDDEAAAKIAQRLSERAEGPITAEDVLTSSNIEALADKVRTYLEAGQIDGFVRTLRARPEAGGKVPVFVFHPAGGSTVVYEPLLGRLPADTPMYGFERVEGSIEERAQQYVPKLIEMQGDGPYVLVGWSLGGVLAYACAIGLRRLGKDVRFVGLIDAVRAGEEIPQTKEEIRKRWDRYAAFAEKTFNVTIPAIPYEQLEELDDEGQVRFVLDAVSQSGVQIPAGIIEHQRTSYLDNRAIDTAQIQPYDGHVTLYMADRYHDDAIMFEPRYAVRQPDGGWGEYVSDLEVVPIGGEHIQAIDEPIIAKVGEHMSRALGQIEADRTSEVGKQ
UniProt A4I591, 1-473: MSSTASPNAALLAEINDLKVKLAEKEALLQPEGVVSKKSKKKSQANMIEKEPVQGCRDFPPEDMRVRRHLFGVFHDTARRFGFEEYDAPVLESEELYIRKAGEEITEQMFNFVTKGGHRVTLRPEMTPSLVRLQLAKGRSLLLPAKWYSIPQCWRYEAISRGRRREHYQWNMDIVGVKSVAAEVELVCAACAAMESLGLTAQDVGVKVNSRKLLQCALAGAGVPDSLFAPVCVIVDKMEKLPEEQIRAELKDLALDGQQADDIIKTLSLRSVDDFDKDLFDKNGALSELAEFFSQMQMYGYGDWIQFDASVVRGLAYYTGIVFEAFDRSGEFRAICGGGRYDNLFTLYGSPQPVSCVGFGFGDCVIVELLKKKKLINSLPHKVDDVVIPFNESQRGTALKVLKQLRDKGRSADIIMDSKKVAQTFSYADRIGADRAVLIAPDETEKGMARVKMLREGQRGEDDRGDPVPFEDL

Values are the deposited “Percent Effect”, in %.
How 0% and 100% were set is not recorded. Most values in the screen are low, and negative values occur.
This is an unselected part of the compounds tested.

A: 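Polyketide synthase Pks13, Mycobacterium tuberculosis (UniProt I6X8D2). Enzyme assay of the thioesterase domain of polyketide synthase 13; the read-out is not stated. Concentration: 30 µM. The record gives no direction; the compounds picked for IC50 retests had high values, so higher reads as stronger inhibition. About 67,000 compounds were tested under these conditions; 0.46% (about 300) showed 50% or more at least once.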
B: 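Enzyme assay of histidyl-tRNA synthetase; the read-out is not stated. Target: Histidine-tRNA ligase, Leishmania infantum (UniProt A4I591). Tested at 30 µM. The record gives no direction; compounds that gave an IC50 in retests scored well above the rest, so higher reads as stronger inhibition. The assay is labelled LdHisRS but filed under L. infantum. Size under these conditions: about 69,000 compounds, about 410 of them at 50% or above in at least one test.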

Result for Cc1nnc2n1CCN(C(C(=O)NC1CC1)c1ccc(F)cc1)C2 (stereo not shown) was A: -20.97%; B: 15.74%. Result for CC(=O)N1CC[C@H]2OCC[C@@H](C(=O)N3CCCCO3)[C@@H]2C1 was A: -14.7%; B: 9.709%. With CCC(CO)N(Cc1ccsc1)Cc1ccccc1C(=O)O (stereo not shown) the screen gave A: -22.23%; B: 13.7%. Cc1nc2cc(CNC(=O)C3CC(=O)N(CCN(C)C)C3)ccc2n1C (stereo not shown) read A: 0.3945%; B: 22.83%. CCCN1CCN(Cc2nccn2CC)C(C)C1 (stereo not shown) read A: -1.36%; B: 9.615%. With Cc1cc(N2CCC(Cc3ccccc3)CC2)ncn1 the screen gave A: 0.3713%; B: 21.35%. CC(C)c1n[nH]c(C2CN(CC(=O)N(C)Cc3ccco3)CCO2)n1 (stereo not shown) gave A: -16.43%; B: 9.091%.

CC(=O)NCCNC(=O)c1cccc(Cn2nc(C)cc2C)c1 read A: -2.514%; B: 13.58%. With CC(=O)N1CCc2[nH]c(=O)ccc2C1 the screen gave A: -1.504%; B: 8.602%. Result for CN(C)C(CNC(=O)OCC(F)(F)F)c1ccsc1 (stereo not shown) was A: -8.596%; B: 13.33%. With CCOC1CC2(CCN(CCO)CC2)c2ccc(C)cc21 (stereo not shown) the screen gave A: -13.55%; B: 26%. For O=C([C@H]1C[C@H]2OCC[C@H]2N(Cc2ccc(F)cc2)C1)N1CCCCO1 the result was A: -40.53%; B: 2%. With Cc1cc2c(=O)n3c(nc2s1)CCN(Cc1cnn(C)c1C)CC3 the screen gave A: -31.07%; B: 13.89%. O=c1c2cccc(C(F)(F)F)c2ncn1C1CCNC1 (stereo not shown) read A: -23.54%; B: 4.255%.

Result for CCN1C(=O)CC[C@@H]2[C@H]1CCN2S(=O)(=O)c1cccs1 was A: -25.28%; B: 11.65%. CCCS(=O)(=O)N1Cc2ccnn2CC(c2nc(C)no2)C1 (stereo not shown) gave A: 11.27%; B: -15.79%. CC1CN(Cc2ccccn2)CCN1c1ccc2nncn2n1 (stereo not shown) read A: -6.238%; B: 5.217%. With O=C(c1ccccc1)N1CCC[C@]2(C[C@@H](Oc3ncccc3F)CO2)C1 the screen gave A: -16.48%; B: 6.452%. For O=C(NCCOc1ncc(Cl)cc1Cl)c1ccncc1 the result was A: -11.03%; B: 7.692%. Result for CN(C)c1cc(C(=O)N2CCCCC2Cn2cccn2)ccn1 (stereo not shown) was A: -3.646%; B: 0.885%. For Cc1nc(CN(C)C2CCN(Cc3cnc(C)s3)C2)no1 (stereo not shown) the result was A: 4.221%; B: 15.38%.

For COCc1nc(N2CCC(CCO)CC2)c2cnn(C)c2n1 the result was A: -5.384%; B: 19.35%. Result for CCN(Cc1noc(C2CC2)n1)C(=O)c1onc2ccccc12 was A: 9.705%; B: 6.122%. With O=C(NCc1ccc(CO)cc1)C1CCOc2ccccc2C1 (stereo not shown) the screen gave A: -10.21%; B: 12.99%. With CC(=O)Nc1nc(C(=O)NCc2ccc(OC(C)C)nc2)cs1 the screen gave A: -14.99%; B: -0.8696%. With Cc1cc(NC(=O)NCC2(O)CCCC2)ccn1 the screen gave A: -2.898%; B: 17.07%. Cc1cccc(C)c1OC1CN(C(=O)C2CCN(C(=O)N(C)C)CC2)C1 gave A: -43.46%; B: 21.67%. Result for O=C(COC1CCCC1)N1C[C@@H]2COC[C@]2(COc2cccnc2)C1 was A: -18%; B: 11.82%.

Result for Cc1ncc(CN2CCOC(c3ccc(-c4ccccc4F)cn3)C2)s1 (stereo not shown) was A: 5.832%; B: -1.053%. CN(CCSc1nncn1C(C)(C)C)c1ccccc1 gave A: -17.06%; B: -23.01%. O=C(CN1CCOC(c2ccc(Cl)s2)C1)NCc1ccco1 (stereo not shown) read A: -13.09%; B: 3.226%. With COC(=O)NCC(=O)NC1CC(C)(C)Cc2oc(C)cc21 (stereo not shown) the screen gave A: -0.4327%; B: 17.14%. With Cc1cnn(CC2CCCN2Cc2nnc(C3CC3)o2)c1 (stereo not shown) the screen gave A: -16.76%; B: 0%. Result for Cn1ccnc1CN1CCN2C[C@H](Oc3ccccc3)C[C@H]2C1 was A: 12.49%; B: 0%. For Cc1ccc(C(=O)NCC2(O)CCOCC2)cc1Br the result was A: -6.872%; B: 19.23%.

For Cc1ncc(COc2ccc(N(C)S(C)(=O)=O)cc2)s1 the result was B: 26.76%. Cc1cccc(CN2C[C@@H]3OCCN(c4ccnc(N(C)C)n4)[C@@H]3C2)c1 read A: -5.747%; B: 20.21%. CNc1ncc(C(=O)N[C@H]2CN(CCCSC)C[C@@H]2C2CC2)cn1 read A: -2.905%; B: 3.279%. With CC(C)Nc1nc(N2CCCC2)nc2c1CCN(S(C)(=O)=O)CC2 the screen gave B: 20.83%. With O=C(NCCNc1ncccn1)C1CC(=O)N(C2CCCC2)C1 (stereo not shown) the screen gave A: -2.767%; B: 14.91%. COc1cc(F)ccc1-c1ncccc1NC(=O)C(C)C gave A: -9.968%; B: 6.557%. Result for CCn1ccnc1CN1CCN(CCC(=O)NC2CCCCC2)CC1 was A: -4.613%; B: -11.01%.

Cc1ccc(C(=O)N(C)Cc2cc(C)on2)cn1 gave A: 142.8%; B: 8.621%. Result for O=C(NCc1ccco1)[C@H]1COC[C@H]2CN(Cc3ccccn3)C[C@H]21 was A: -38.56%; B: 14%. CCN(C)CC(=O)N1CCCC(c2nnc(CN3CCOCC3)n2C)C1 (stereo not shown) read A: -9.016%; B: 13.89%.

The first 5 entries again:

* Cc1nnc2n1CCN(C(C(=O)NC1CC1)c1ccc(F)cc1)C2 (stereo not shown) | A: -20.97%; B: 15.74%
* CC(=O)N1CC[C@H]2OCC[C@@H](C(=O)N3CCCCO3)[C@@H]2C1 | A: -14.7%; B: 9.709%
* CCC(CO)N(Cc1ccsc1)Cc1ccccc1C(=O)O (stereo not shown) | A: -22.23%; B: 13.7%
* Cc1nc2cc(CNC(=O)C3CC(=O)N(CCN(C)C)C3)ccc2n1C (stereo not shown) | A: 0.3945%; B: 22.83%
* CCCN1CCN(Cc2nccn2CC)C(C)C1 (stereo not shown) | A: -1.36%; B: 9.615%

Measurements from “University of Dundee, Small-Polar-MMV Screening Library” (2021), ChEMBL document CHEMBL3988442.